Experiment in all cases: co-IP
In assay [1] the target is ataxia-telangiectasia mutated (ATM) protein kinase (human (endogenous in H460)) (UniProt Q13315).
For assay [2], the target named is Protein Reprimo (RPRM), HA-tagged full-length (human) (UniProt Q9NS64).
In assay [3] the target is ataxia-telangiectasia mutated (ATM) protein kinase (human (endogenous in H460)) (UniProt Q13315). This is another data set of the same source.

By UniProt entry, the sequences of proteins in these tests, tags left out. Where a name states a change or a piece, a line headed by the entry shows the natural chain unless it says otherwise.
UniProt Q13315, whole entry: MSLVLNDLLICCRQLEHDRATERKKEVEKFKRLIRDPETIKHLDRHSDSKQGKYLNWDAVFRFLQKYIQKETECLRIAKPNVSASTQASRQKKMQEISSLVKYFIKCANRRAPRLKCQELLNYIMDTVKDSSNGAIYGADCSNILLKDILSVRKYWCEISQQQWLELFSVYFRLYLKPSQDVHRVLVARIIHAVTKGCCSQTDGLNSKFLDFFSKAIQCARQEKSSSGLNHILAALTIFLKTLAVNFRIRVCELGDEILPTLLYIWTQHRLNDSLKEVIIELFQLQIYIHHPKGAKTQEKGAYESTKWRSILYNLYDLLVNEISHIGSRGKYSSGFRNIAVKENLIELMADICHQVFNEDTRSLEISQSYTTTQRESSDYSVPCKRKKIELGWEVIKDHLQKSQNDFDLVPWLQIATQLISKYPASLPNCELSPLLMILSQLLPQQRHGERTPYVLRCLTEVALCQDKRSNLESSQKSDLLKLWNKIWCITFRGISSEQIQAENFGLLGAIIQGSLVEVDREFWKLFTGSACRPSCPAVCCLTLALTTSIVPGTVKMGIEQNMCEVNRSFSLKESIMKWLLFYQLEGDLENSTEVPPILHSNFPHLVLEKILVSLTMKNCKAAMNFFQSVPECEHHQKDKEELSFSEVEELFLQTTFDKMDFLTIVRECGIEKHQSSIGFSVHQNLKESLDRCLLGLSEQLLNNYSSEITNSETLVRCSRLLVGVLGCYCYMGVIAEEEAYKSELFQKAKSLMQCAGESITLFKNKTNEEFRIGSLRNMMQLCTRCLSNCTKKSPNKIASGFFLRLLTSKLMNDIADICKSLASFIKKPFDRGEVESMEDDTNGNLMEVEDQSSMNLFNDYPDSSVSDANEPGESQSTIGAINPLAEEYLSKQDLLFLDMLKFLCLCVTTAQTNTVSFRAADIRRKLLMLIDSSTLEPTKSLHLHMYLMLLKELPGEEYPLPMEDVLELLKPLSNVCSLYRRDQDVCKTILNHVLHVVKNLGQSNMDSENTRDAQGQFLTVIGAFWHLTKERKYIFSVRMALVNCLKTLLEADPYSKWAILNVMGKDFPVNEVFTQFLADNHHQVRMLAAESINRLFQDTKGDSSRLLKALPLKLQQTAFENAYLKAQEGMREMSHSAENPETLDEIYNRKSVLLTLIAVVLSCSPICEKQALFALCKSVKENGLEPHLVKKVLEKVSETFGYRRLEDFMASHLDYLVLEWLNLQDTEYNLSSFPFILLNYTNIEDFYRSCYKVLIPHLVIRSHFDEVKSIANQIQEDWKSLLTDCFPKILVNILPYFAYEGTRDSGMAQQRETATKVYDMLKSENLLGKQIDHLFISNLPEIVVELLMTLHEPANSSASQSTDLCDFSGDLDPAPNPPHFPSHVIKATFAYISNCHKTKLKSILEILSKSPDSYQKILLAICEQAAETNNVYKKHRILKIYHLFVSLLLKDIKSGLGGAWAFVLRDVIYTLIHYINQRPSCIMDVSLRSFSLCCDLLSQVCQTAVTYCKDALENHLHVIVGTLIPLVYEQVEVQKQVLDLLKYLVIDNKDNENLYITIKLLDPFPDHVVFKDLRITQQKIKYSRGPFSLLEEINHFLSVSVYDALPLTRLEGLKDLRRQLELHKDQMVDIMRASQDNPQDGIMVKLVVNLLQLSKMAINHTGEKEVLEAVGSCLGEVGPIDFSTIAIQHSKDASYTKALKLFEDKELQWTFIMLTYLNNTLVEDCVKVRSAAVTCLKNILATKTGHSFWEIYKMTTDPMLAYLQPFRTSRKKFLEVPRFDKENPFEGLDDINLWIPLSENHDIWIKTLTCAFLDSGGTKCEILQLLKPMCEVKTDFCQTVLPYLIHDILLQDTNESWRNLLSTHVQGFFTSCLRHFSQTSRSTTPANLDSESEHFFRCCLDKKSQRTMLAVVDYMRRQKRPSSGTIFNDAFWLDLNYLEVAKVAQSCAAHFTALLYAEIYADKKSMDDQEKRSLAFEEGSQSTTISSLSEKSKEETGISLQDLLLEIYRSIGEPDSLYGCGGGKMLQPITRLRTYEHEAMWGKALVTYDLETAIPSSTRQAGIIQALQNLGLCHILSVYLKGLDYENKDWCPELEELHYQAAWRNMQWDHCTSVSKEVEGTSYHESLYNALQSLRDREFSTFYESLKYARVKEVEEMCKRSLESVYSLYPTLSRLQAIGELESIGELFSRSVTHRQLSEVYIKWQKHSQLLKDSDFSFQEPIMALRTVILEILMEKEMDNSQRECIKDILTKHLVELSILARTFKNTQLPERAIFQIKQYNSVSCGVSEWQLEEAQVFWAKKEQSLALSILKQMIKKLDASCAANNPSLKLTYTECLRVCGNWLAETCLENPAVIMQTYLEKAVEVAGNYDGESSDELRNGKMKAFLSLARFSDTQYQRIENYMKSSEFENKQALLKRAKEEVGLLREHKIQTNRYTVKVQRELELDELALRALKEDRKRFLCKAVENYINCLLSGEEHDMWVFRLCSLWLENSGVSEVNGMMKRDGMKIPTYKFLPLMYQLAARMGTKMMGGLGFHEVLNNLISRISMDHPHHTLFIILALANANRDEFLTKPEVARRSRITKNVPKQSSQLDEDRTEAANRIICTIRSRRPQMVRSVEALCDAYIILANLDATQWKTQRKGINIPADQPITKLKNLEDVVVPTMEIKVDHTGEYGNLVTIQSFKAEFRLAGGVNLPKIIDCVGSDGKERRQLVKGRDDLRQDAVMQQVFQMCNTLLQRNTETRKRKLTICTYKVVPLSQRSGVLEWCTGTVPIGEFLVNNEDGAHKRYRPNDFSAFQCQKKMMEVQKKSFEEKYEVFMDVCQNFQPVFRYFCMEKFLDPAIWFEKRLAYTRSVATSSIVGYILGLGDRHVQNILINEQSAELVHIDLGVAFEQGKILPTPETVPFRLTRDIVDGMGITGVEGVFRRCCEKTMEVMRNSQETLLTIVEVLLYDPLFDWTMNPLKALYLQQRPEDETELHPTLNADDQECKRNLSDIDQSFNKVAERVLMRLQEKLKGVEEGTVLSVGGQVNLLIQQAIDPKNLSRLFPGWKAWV
UniProt Q00534, whole entry: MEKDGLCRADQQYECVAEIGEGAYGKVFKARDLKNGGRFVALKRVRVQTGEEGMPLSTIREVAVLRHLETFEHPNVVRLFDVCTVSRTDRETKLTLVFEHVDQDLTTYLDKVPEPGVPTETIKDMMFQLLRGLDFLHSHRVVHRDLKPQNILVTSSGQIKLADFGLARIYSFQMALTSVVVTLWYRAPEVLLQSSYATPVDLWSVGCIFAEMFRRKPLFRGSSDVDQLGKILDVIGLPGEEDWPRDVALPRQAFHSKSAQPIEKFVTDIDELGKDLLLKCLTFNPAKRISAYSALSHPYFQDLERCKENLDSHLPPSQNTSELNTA

Where two headings read alike, the source gives them in different places. No constants are given. Whether binding was seen depends on the method and setting. In cells and extracts the contact can be indirect. Some binding calls cover weakened binding; strength is not graded here. For some of these results: Sequences can lack the tags named with a protein.

For the molecule “Protein Reprimo (RPRM), HA-tagged full-length (from UniProt Q9NS64 1-109)”, the binding result in assay [1] is listed as “binds”.
On the same count and under the same terms, then “RPRM-S98A mutant, HA-tagged (from UniProt Q9NS64 1-109)”, with “binds”.
Take “cyclin-dependent kinase 6 (CDK6) (from UniProt Q00534 1-326)”: the binding entry in assay [2] was “binds”.

B1: RPRM deletion mutant Δ(79-109), HA-tagged (domain or fragment, UniProt Q9NS64 1-78)
chain: MNPALGNQTDVAGLFLANSSEALERAVRCCTQASVVTDDGFAEGGPDERSLYIMRVVQIAVMCVLSLTVVFGIFFLGC
As to B1, the binding entry in assay [3] is “binds”.

These data come from article doi:10.1101/2021.11.10.468148.
